The values that follow come from PubChem BioAssay AID2685 (National Center for Advancing Translational Sciences (NCATS), 2010).

A short description of the test: qHTS Assay for Lipid Storage Modulators in Drosophila S3 Cells.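 For cell number change: cells counted by Cell Tracker Red CMTPX staining in the red channel.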 The note with it: BODIPY lipid droplet fluorescence, 18-24 h; for cell number change: measured here: cell count max response, cells fed with added oleic acid. The method, boiled down: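 Drosophila S3 cells got compounds at several concentrations plus oleic acid (400 uM solution). Laser-scanning cytometry with 488 nm excitation read lipid droplets at 500-530 nm and cells at 575-640 nm. Percent activity was relative to 20 uM Triacsin C.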

Where [1] appears, read: measured here: cell number channel AC50, cells fed with added oleic acid.
The mark [2] stands for this setting: measured here: lipid fluorescence (Fed channel) AC50, cells fed with added oleic acid.

The list shows a part of the results. Shown are side measurements of this screen, not its main read-out; they come without a call. The list favours compounds with an active or inconclusive main result. Potencies come from curve fits of mixed quality, noted in brackets.

For the compound `C=CCn1c(SCC(=O)OCC)nc2cc(C(=O)NCc3ccco3)ccc2c1=O`, the cell number change is -1.3%. The half-maximal activity concentration (AC50) under setting [1] was 2.91 µM [rising, single point]. For the same compound, under setting [2], the AC50 was 4.61 µM [rising, single point].

On to `CCOC(=O)C1CCCN(C(=O)CSc2ccc(NC(C)=O)cc2)C1` (stereo unspecified), for which the cell number change worked out at 5.13%.

Consider `O=C(COC(=O)c1cccc([N+](=O)[O-])c1)NCC1CCCO1` (stereo unspecified), for which the cell number change was found to be 0.593%.

Regarding `Cc1ccc2cccnc2c1NC(=S)NC(=O)c1ccccc1`, the AC50 is, setting by setting: under setting [1], 2.31 µM [rising, partial curve]; under setting [2], 2.06 µM [rising, partial curve].

For `O=C(Nc1cccc(Cl)c1)C1CCCN(S(=O)(=O)c2cnc[nH]2)C1` (stereo unspecified), the cell number change is -4.98%.

Turning to `O=C(N/N=C/c1ccc(OCC(=O)N2CCOCC2)cc1)c1ccccc1Cl`, the cell number change was -9.55%.

Take `CC1CCCCC1NC(=O)c1ccc2c(c1)OCCO2` (stereo unspecified): the cell number change was -12.6%. The concentration at half-maximal activity (AC50) under setting [2] was 0.517 µM [falling, full curve, poor fit].

Consider `CCc1n[nH]c(=S)n1/N=C/c1c(C)nn(-c2ccccc2)c1Cl`, for which the cell number change was -15.2%. The AC50 under setting [2] is 13 µM [falling, partial curve, poor fit].

`CCOC(=O)c1ccc(Oc2coc3cc(O)ccc3c2=O)cc1`: under setting [1], the AC50 was 0.651 µM [rising, single point].

Regarding `COc1ccc(S(=O)(=O)NCc2ccncc2)cc1NC(=O)c1ccccc1C`, the cell number change is -12.9%.

Consider `C#CCSC1=C(C#N)C(c2cccs2)C(C(=O)OCC)=C(C)N1` (stereo unspecified), for which the cell number change was -1.12%.

Regarding `COc1ccc(-c2nc3ccccn3c2C=O)cc1`, the cell number change is -11.3%.

Turning to `CCOC(=O)CC1(NC(=O)c2cc(COc3cncc(Cl)c3)on2)CCCCC1`, the cell number change is -37.5%. Further, the AC50 under setting [1] was 29.1 µM [falling, single point]. In addition, the AC50 under setting [2] is 32.6 µM [falling, partial curve].

With `Cc1ccc(N2C(=O)c3ccccc3NC2C(C)Cc2ccc3c(c2)OCO3)cc1` (stereo unspecified), the cell number change was -10%. Moreover, the concentration at half-maximal activity (AC50) under setting [2] is 2.91 µM [rising, partial curve].

On to `CC1(C)CC(=O)C(C=NCCN2CCN(C(=O)CC3CCCC3)CC2)=C(O)C1`, for which the cell number change came to 6%. The AC50 under setting [2] is 29.1 µM [falling, single point].

For the compound `CC1CCCC(C)N1CC(O)COc1c(F)cc(Br)cc1F` (stereo unspecified), the cell number change is -105%. Also, the AC50 under setting [2] is 29.1 µM [falling, partial curve].

As for `Cc1sc2ncn(CC(=O)NCCCOC(C)C)c(=O)c2c1S(=O)(=O)N1CCN(c2ncccn2)CC1`, the cell number change was -12.2%. Under setting [1], the half-maximal activity concentration (AC50) was 6.51 µM [falling, single point].

For `Cc1ccccc1N(CC(=O)NC1CCCCC1)C(=O)CNC(=O)c1cccs1`, the cell number change is -19%. Besides, the AC50 under setting [1] is 0.13 µM [falling, full curve, poor fit]. Under setting [2], the half-maximal activity concentration (AC50) was 29.1 µM [falling, partial curve, poor fit].

As to `CC1(C(=O)N2CCC(CO)(Cc3cccc(C(F)(F)F)c3)CC2)CC1`, the cell number change was found to be 9.84%.

Regarding `Cc1ccc(N(CC(O)CN2CCCC2)S(=O)(=O)c2ccccc2)cc1` (stereo unspecified), the cell number change stood at 5.67%. Further, the AC50 under setting [2] was 5.17 µM [falling, single point].

In the case of `CCOC(=O)c1nnn(-c2nonc2N)c1-c1ccc(C)cc1`, the cell number change was -17.8%. Moreover, the AC50 under setting [2] was 0.731 µM [falling, full curve, poor fit].

Consider `COc1cccc(-c2cc(C(=O)O)no2)c1`, for which the cell number change is -23.8%. The AC50 under setting [2] was 29.1 µM [falling, single point].

In the case of `CC(C)(C)c1ccc(C2(C)NC(=O)N(CC(=O)NCc3cccs3)C2=O)cc1` (stereo unspecified), the AC50 under setting [2] is 13 µM [falling, partial curve].

Take `Cc1c(C(=O)NCc2nnc(-c3ccccc3)o2)oc2c(F)cccc12`: the cell number change is -6.23%. Moreover, the AC50 under setting [2] was 25.9 µM [falling, single point].

As for `C/C(=N\NC(=O)Cn1c(-c2ccccn2)nc2ccccc21)c1ccccc1`, the cell number change was 34.7%. Further, the half-maximal activity concentration (AC50) under setting [1] was 29.1 µM [rising, single point].

For `O=C1C=C(c2ccc(-c3ccccc3)cc2)C[C@@H](c2ccc3c(c2)OCO3)C1`, the cell number change was 19.9%. Moreover, under setting [1], the concentration at half-maximal activity (AC50) is 0.00461 µM [falling, full curve, poor fit]. The concentration at half-maximal activity (AC50) under setting [2] is 4.61 µM [rising, single point].

`CCC(C(=O)OCC(=O)Nc1cccc(S(=O)(=O)NC2=NCCCCC2)c1)c1ccccc1` (stereo unspecified): the cell number change was -24.5%. Moreover, the AC50 under setting [2] was 0.651 µM [falling, partial curve, poor fit].

In the case of `Cc1ccc(OCC(=O)Nc2c(C)ccc3nsnc23)cc1`, the cell number change is -7.08%.

Consider `O=C(CSc1ccc(-c2nc3ccccc3[nH]2)cn1)Nc1ccc(S(=O)(=O)N2CCCC2)cc1`, for which the cell number change was -6.79%. Moreover, the half-maximal activity concentration (AC50) under setting [2] was 18.4 µM [falling, single point].

Take `Cc1ccc(Cl)c2c(N=Nc3ccccc3)c(O)[nH]c12`: the cell number change was determined as 17.7%. In addition, the AC50 under setting [2] was 0.259 µM [falling, full curve].

Turning to `CCOC(=O)C(NCc1ccc(F)cc1)(NC(=O)c1ccccc1)C(F)(F)F` (stereo unspecified), the concentration at half-maximal activity (AC50) under setting [2] is 6.51 µM [falling, full curve, poor fit].

Regarding `CC(C)(C)OC(=O)N1CCC[C@H]1C(=O)NCc1ccc(Cl)cc1Cl`, the AC50 under setting [1] was 0.0058 µM [falling, full curve, poor fit].

Consider `Cc1cccc(Oc2ccc(NC(=O)c3ccccc3C(=O)O)cc2)c1`, for which the cell number change is 17.4%. Moreover, the half-maximal activity concentration (AC50) under setting [2] was 6.51 µM [rising, full curve, poor fit].

On to `Cc1ccccc1C(=O)c1c[nH]c(C(=O)N2CCN(c3ccccc3F)CC2)c1`, for which the cell number change turned out to be 42.6%. Also, under setting [1], the AC50 is 8.2 µM [rising, single point].

For the compound `O=C(O)CCn1c(CO)nc2ccccc21`, the cell number change turned out to be 8.36%.

As to `Cc1cccc(C)c1OCCOCCN1CCN(C)CC1`, the cell number change is -14.1%. Further, under setting [2], the AC50 was 0.00461 µM [falling, full curve, poor fit].

Turning to `COC(=O)c1c(C)[nH]c(C(=O)C(C)Sc2nnc(-c3cc(OC)c(OC)c(OC)c3)o2)c1C` (stereo unspecified), the cell number change turned out to be 1.03%.

Regarding `Cn1c(=O)n(CCc2ccccc2)c(=O)c2c1ncn2Cc1ccccc1`, the AC50 under setting [1] is 2.06 µM [rising, partial curve] and the AC50 under setting [2] was 2.31 µM [rising, partial curve].

Regarding `CCN(CC)C(=O)Oc1ccc(Br)c2ccccc12`, the cell number change is 26.6%. For the same compound, the half-maximal activity concentration (AC50) under setting [1] is 3.66 µM [rising, full curve, poor fit]. The AC50 under setting [2] was 29.1 µM [rising, single point].

Regarding `O=c1c2ccccc2nc2c3ccccc3c(NCc3ccco3)nn12`, the cell number change was 127%. Also, the AC50 under setting [1] was 0.291 µM [rising, full curve]. The AC50 under setting [2] is 7.31 µM [rising, partial curve, poor fit].
